Reference: publication PMC11395002
These are yes or no findings as the source states them, for the method shown. Binding can be weak; no strength is given.

By UniProt entry, the sequences of proteins in these tests, tags left out. Where a name states a change or a piece, a line headed by the entry shows the natural chain unless it says otherwise.
UniProt A0A3Q7FKM9: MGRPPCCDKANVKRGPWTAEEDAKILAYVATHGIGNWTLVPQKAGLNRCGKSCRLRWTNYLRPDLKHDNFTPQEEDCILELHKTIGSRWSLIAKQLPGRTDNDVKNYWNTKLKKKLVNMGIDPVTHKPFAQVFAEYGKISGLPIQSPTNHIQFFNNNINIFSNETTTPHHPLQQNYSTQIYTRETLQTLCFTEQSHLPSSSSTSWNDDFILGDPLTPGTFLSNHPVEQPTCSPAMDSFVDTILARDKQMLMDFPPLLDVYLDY

Target: SlHB8-GST (tomato (Solanum lycopersicum))
Experiment: pull-down; SlHB8-GST (or GST-null) held on GST-tagged protein purification magnetic beads, SlMYB80-his or SlTDF1-1-his added; detected by blot; both purified

With SlTDF1-1-his (from UniProt A0A3Q7FKM9) as the substance, how does the binding read?
The binding was “binds”.
